{
  "source": "patent US5846936A",
  "about": "“Growth hormone releasing factor analogs” (Roche Vitamins Inc., priority 1995, dated 1998)",
  "test": "Half-life stability of GRF analogs in aqueous solution by reverse phase HPLC",
  "assay_type": "physicochemical",
  "details": "aqueous buffer pH 7.40 (0.25M Na2HPO4/H3PO4, 1.0 mM NaN3), 37° C., 0.15 mg/mL",
  "protocol": "Half-life stability of GRF analogs in aqueous solution was determined by reverse phase HPLC at 37° C. GRF analogs were prepared as described above. GRF analogs were dissolved in […] of H2 O and then taken up in 1.0 mL of buffer solution (pH 7.40) containing 0.25M Na2 HPO4 /H3 PO4 and 1.0 mM NaN3. The concentration of the GRF analogs was 0.15 mg/mL. The HPLC system was a Laboratory Data Control (LDC) HPLC with a Waters C-18 column (3.9×300 mm, 10μ). The detector was a LDC Spectromonitor III and the gradient delivery system was a Constametric II. Mobile phase--(A) 0.025% TFA in H2 O, (B) 0.025% TFA in acetonitrile. Gradient was 0-37% (B) in 15 minutes for SEQ ID NO: 8-NH2 where Xaa^1 is desNH2 Tyr and Xaa^2 is D-Ala and SEQ ID NO: 9-NH2 where Xaa^1 is desNH2 Tyr and Xaa^2 is D-Ala; 0-35% (B) in 15 minutes for SEQ ID NO: 35-NH2 where Xaa^1 is desNH2 Tyr and Xaa^2 is D-Ala; and 0-36% (B) in 15 minutes for SEQ ID NO: 10-NH2 where Xaa^1 is desNH2 Tyr and Xaa^2 is D-Ala. Flow rate for all gradients was 2 ml/minute. Detection was at 206 nm using a UV detector.",
  "note": "At least one peptide structure holds a part that was inferred or is arguable (an end, a ring closure or a residue). Where a SMILES comes first, the peptide text is derived from it. [ ]: non-standard residue; d: D form. The star is where a group is joined. Desaminotyrosyl = O=C(CCc1ccc(O)cc1)*",
  "data": [
    {"smiles": "CC[C@H](C)[C@H](NC(=O)[C@H](C)NC(=O)[C@H](CC(=O)O)NC(=O)[C@@H](C)NC(=O)CCc1ccc(O)cc1)C(=O)N[C@@H](Cc1ccccc1)C(=O)N[C@H](C(=O)N[C@@H](CO)C(=O)N[C@@H](CO)C(=O)N[C@@H](Cc1ccc(O)cc1)C(=O)N[C@@H](CCCNC(=N)N)C(=O)N[C@@H](CCCCN)C(=O)N[C@H](C(=O)N[C@@H](CC(C)C)C(=O)N[C@@H](C)C(=O)N[C@@H](CCC(N)=O)C(=O)N[C@@H](CC(C)C)C(=O)N[C@@H](CO)C(=O)N[C@@H](C)C(=O)N[C@@H](CCCNC(=N)N)C(=O)N[C@@H](CCCCN)C(=O)N[C@@H](CC(C)C)C(=O)N[C@@H](CC(C)C)C(=O)N[C@@H](CCC(N)=O)C(=O)N[C@@H](CC(=O)O)C(=O)N[C@H](C(=O)N[C@@H](CCSC)C(=O)N[C@@H](CO)C(=O)N[C@@H](CCCNC(=N)N)C(N)=O)[C@@H](C)CC)C(C)C)[C@@H](C)O", "note": "[SEQ ID NO: 9-NH2] (Desaminotyrosyl-[dA]DAIFTSSYRKVLAQLSARKLLQDIMSR-NH2)", "values": [
      {"measurement": "HALF-LIFE t(1/2)", "value": 180, "unit": "h"}
    ]}
  ]
}
